# At least one compound was matched to its structure with a doubt left.
# Experiment: Pharmacokinetic study 1: P5P and P5P analog 16, IV and PO, rats
# Type: in vivo
# Conditions: IV 1 mg/kg, rat
# Procedure: Pharmacokinetic study 1 was carried out (see Example 98: P5P analog 16i: Pharmacokinetic study 1) to assess if P5P analog 16i was able to be converted to P5P and increase plasma P5P, to assess if P5P analog 16i was orally available, and to compare the ability of PO P5P analog 16i and PO P5P to increase plasma P5P.
# In order to isolate the effects of the administered P5P analog 16i on pyridoxine (PL) and P5P (PLP) levels, the basal levels of both PL and P5P were subtracted from the measured concentrations. Baseline subtraction was accomplished by subtracting pre-dose concentrations of either PL or P5P from the subsequent values in the time course.
# Formulation—Both P5P (pyridoxal-5-phosphate) and P5P analog 16 were formulated in phosphate buffered saline (PBS) as homogenous solutions on the day of dosing.
# Animals and group—13 CD ♂ rats with an approx. weigh of ˜250 g were used. Animals were split into 4 groups+1 extra (n=3 for each group). Animals were allowed a 5-day acclimatization period in animal facility. The animal room environment was controlled (temperature 22 f 0.2° C.; relative humidity 55 f 25%; 12 hours light/dark cycle, and 12 air changes per hour). A standard certified commercial rodent chow was provided to the animals ad libitum. […]
smiles,measurement,value
"Cc1ncc(COP(=O)(O)O)c(C=O)c1O [Compound P5P, pyridoxal-5-phosphate]",plasma P5P time of Cmax,0.1 h

# — patent publication US20250034185A1 (priority 2021, published 2025)
